Results are given in words; binding and its absence hold for the method and conditions named. A result given as binding can be weak or reduced; the word gives no strength.
Columns and labels:
[1] = target: recombinant human CD40 extracellular domain with C-terminal 6His tag (Novoprotein) (human); experiment: ELISA, plate coated with CD40 extracellular domain-6His at 1 ug/ml; SVX-3001 supernatant estimated at 27.3 ng/ml
[2] = target: recombinant human CD40 extracellular domain with C-terminal 6His tag (Novoprotein) (human); experiment: ELISA
[3] = target: recombinant human CD40 extracellular domain with C-terminal 6His tag (Novoprotein) (human); experiment: ELISA, plate coated with CD40 extracellular domain-6His

Measured: binding

B1: Humanized anti-human CD-40 antibody SVX-3001 (antibody, human IgG1, kappa, V domains shown)
VH: QVQLQQSGPGLVKPSQSLSLTCAVSGYSITTNYYWNWIRQAPGKGLEWVGYIRYDGTTYYAPSLKGRFSITRDTSKNQFFLQLTSVTPEDTATYYCARLDYWGQGTLVTVSS
VL: DIVMTQSPLSLSVSLGDRASISCRSSQSLENSNGNTFLNWFQQKPGQSPQLLIYRVSNRFSGVPDRFSGSGSGTDFTLKISRVEAEDEGVYFCLQVTHVPYTFGGGTKLEIKR
binds: all assays above
